Measured values from patent US20210054078A1.
Results are given in words; binding and its absence hold for the method and conditions named. Some results given as binding are weak or reduced against the parent protein; the word gives no strength.

Chains of the proteins cited; added tags and fusions are not shown. Lines headed by an entry give the natural chain unless they say otherwise; changes in a name come on top. Residues count along the entry.
UniProt Q9NZQ7: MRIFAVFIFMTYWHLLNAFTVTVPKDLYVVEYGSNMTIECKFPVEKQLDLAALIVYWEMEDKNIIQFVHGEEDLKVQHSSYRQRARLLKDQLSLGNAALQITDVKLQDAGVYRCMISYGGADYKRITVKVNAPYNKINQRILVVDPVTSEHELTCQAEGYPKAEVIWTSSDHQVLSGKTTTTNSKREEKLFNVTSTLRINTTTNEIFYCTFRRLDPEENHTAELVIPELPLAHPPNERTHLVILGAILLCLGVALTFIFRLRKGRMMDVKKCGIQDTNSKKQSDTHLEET
human PD-L1 on hPD-L1/CHO-K1 overexpressing cells: residues 19-290 of Q9NZQ7
UniProt Q9EP73, residues 19-290: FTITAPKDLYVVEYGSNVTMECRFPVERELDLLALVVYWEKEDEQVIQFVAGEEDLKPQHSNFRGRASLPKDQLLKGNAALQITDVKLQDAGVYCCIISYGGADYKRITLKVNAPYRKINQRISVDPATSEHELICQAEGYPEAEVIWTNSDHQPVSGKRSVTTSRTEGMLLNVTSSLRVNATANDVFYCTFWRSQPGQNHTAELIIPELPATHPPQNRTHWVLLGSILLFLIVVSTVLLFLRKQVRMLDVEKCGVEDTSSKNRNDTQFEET

Assays:
[1] = target: Human PD-L1-HisTag (#10084-H08H, Sino Biological Inc.) (human) (UniProt Q9NZQ7); assay: ELISA on coated His-tag human PD-L1, OD450-630
[2] = target: human PD-L1 on hPD-L1/CHO-K1 overexpressing cells (human) (UniProt Q9NZQ7); assay: flow cytometry, purified IgG on hPD-L1/CHO-K1 cells, PE anti-human IgG-Fc
[3] = target: mouse PD-L1 on mPD-L1/CHO-K1 overexpressing cells (mouse) (UniProt Q9EP73); assay: flow cytometry, purified IgG on mPD-L1/CHO-K1 cells, PE anti-human IgG-Fc
[4] = target: mouse PD-L1 on mPD-L1/CHO-K1 overexpressing cells (mouse) (UniProt Q9EP73); assay: flow cytometry on mPD-L1/CHO-K1 cells
[5] = target: human PD-L1 on hPD-L1/CHO-K1 overexpressing cells (human) (UniProt Q9NZQ7); assay: flow cytometry on hPD-L1/CHO-K1 cells

Row | binding [1] | binding [2] | binding [3] | binding [4] | binding [5] | Binder
1 | binds | binds |  |  |  | 1G1 anti-PD-L1 antibody (IgG form) (antibody, V domains shown) VH: QVQLVESGGGLVQPGRSLRLSCAASGFTFDDYAMHWVRQAPGKGLEWVSGISWNSGSIGYADSVKGRFTISRDNAKNSLYLQMNSLRAEDTAVYYCAKPRDISSWLGMDVWGQGTTVTVSS VL: DIQMTQSPSSVSASVGDRVTITCRASQDISSWLAWYQQKPGKAPKLLIYAASSLQSGVPSRFSGSGSGTDFTLTISSLQPEDSATYYCQQTNNFPYTFGQGTKLEIKR
2 | binds | binds | binds |  |  | ME4 anti-PD-L1 antibody (IgG form) (antibody, V domains shown) VH: QVQLVESGAEVKKPGSSVKVSCKASGGTFNNYAVSWVRQAPGQGLEWMGRIIPILGIANYAQTFQGRVTITADKSTTTAYMELSSLRSEDTAVYYCARSYSGYAEGAFDIWGQGTMVTVSS VL: QFVLTQPPSVSGAPGQRVTISCTGSSSNIGAGYDVHWYQQLPGTAPKVLIYGNSDRPSGVPDRFSGSKSGTSASLAITGLQGEDKATYYCQSYDSRLSGPVFGTGTKVTVLG
3 |  |  |  | binds | binds | ME4.A2 anti-PD-L1 antibody (IgG form) (antibody, V domains shown) VH: QVQLVESGAEVKKPGSSVKVSCKASGGTFNNYAVSWVRQAPGQGLEWMGRIIPILGIANYAQTFQGRVTITADKSTTTAYMELSSLRSEDTAVYYCARSSRGYAHGAFDIWGQGTMVTVSS VL: QFVLTQPPSVSGAPGQRVTISCTGSSSNIGAGYDVHWYQQLPGTAPKVLIYGNSDRPSGVPDRFSGSKSGTSASLAITGLQGEDKATYYCQSYDSRLSGPVFGTGTKVTVLG
4 |  |  |  | binds | binds | ME4.B12 anti-PD-L1 antibody (IgG form) (antibody, V domains shown) VH: QVQLVESGAEVKKPGSSVKVSCKASGGTFNNYAVSWVRQAPGQGLEWMGRIIPILGIANYAQTFQGRVTITADKSTTTAYMELSSLRSEDTAVYYCARSSFGYSVGAFDIWGQGTMVTVSS VL: QFVLTQPPSVSGAPGQRVTISCTGSSSNIGAGYDVHWYQQLPGTAPKVLIYGNSDRPSGVPDRFSGSKSGTSASLAITGLQGEDKATYYCQSYDSRLSGPVFGTGTKVTVLG
5 |  |  |  | binds | binds | ME4.A11 anti-PD-L1 antibody (IgG form) (antibody, V domains shown) VH: QVQLVESGAEVKKPGSSVKVSCKASGGTFNNYAVSWVRQAPGQGLEWMGRIIPILGIANYAQTFQGRVTITADKSTTTAYMELSSLRSEDTAVYYCARSRGGYAHGAFDIWGQGTMVTVSS VL: QFVLTQPPSVSGAPGQRVTISCTGSSSNIGAGYDVHWYQQLPGTAPKVLIYGNSDRPSGVPDRFSGSKSGTSASLAITGLQGEDKATYYCQSYDSRLSGPVFGTGTKVTVLG
6 |  |  |  | binds | binds | ME4.A12 anti-PD-L1 antibody (IgG form) (antibody, V domains shown) VH: QVQLVESGAEVKKPGSSVKVSCKASGGTFNNYAVSWVRQAPGQGLEWMGRIIPILGIANYAQTFQGRVTITADKSTTTAYMELSSLRSEDTAVYYCARSHWGYAHGAFDIWGQGTMVTVSS VL: QFVLTQPPSVSGAPGQRVTISCTGSSSNIGAGYDVHWYQQLPGTAPKVLIYGNSDRPSGVPDRFSGSKSGTSASLAITGLQGEDKATYYCQSYDSRLSGPVFGTGTKVTVLG
7 |  |  |  | binds | binds | ME4.B10 anti-PD-L1 antibody (IgG form) (antibody, V domains shown) VH: QVQLVESGAEVKKPGSSVKVSCKASGGTFNNYAVSWVRQAPGQGLEWMGRIIPILGIANYAQTFQGRVTITADKSTTTAYMELSSLRSEDTAVYYCARSARGYAHGAFDIWGQGTMVTVSS VL: QFVLTQPPSVSGAPGQRVTISCTGSSSNIGAGYDVHWYQQLPGTAPKVLIYGNSDRPSGVPDRFSGSKSGTSASLAITGLQGEDKATYYCQSYDSRLSGPVFGTGTKVTVLG
